Construct, isoform or probe ends are uncertain for at least one entry. A negative result means that nothing was seen under these conditions.

This data set deals with DnaE polymerase + PykA PEPut domain. The data set is described as follows: SPR. As to conditions: PEPut titrated onto DnaE (35 nM) on DNA, no PEPut recruitment to DnaE-DNA (DnaE itself binds), 25 mM MgCl2; SPR (Biacore T200, SA chip): 25 mM NaCl, 25 mM MgCl2, 150 mM Tris-HCl pH 7.5, 1 mM DTT, 25 °C; recombinant protein; protein details: His-MBP removed by TEV; label: 5' biotin on 110 mer (strand 1).

Regarding “CACACACACACACACACACACACACACACACACACACACACACACACACACACACACACCCCCTTTAAAAAAAAAAAAAAAAGCCAAAAGCAGTGCCAAGCTTGCATGCC / AGGGGGTGTGTGTGTGTGTGTGTGTGTGTG [primed probe, 30 mer on 5'-biotinylated 110 mer]”, the binding result is “no binding”.
